PubChem BioAssay AID504467 (National Center for Advancing Translational Sciences (NCATS), 2011)
In all, about 330,000 compounds went through this assay and about 7,700 (2.3%) were called active. This list was built around the results that the source calls inconclusive (neither active nor inactive); the mix of calls is not that of the screen. Calls follow the shape of the dose curve; as a rule, active = well fitted inhibition curve with a large enough effect; inconclusive = small, poorly fitted or top-dose-only effect, or effect the other way; inactive = flat fitted curve, though single readings scatter. Potencies of inconclusive entries are doubtful fits and often do not repeat.

Assay: qHTS screen for small molecules that inhibit ELG1-dependent DNA repair in human embryonic kidney (HEK293T) cells expressing luciferase-tagged ELG1; also: nearly all actives have a fitted effect of over 55% in size
Conditions: HEK293T ELG1-luciferase reporter, luminescence, 16 h, DNA damage induced by 5-fluorouridine; series mostly up to 46.1 µM
Method in brief: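 Luminescence from the luciferase reporter, measured 30 min after ONE-Glo reagent at room temperature, was the read-out. Beforehand, 2,000 cells per well were exposed for 16 hr at 37 °C to 5-fluorouridine together with compound or vehicle.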
Potency is read from the fitted curve at half-maximal effect.

SMILES	Potency
COc1ccc(CCN(Cc2cc3cc(C)cc(C)c3nc2Cl)C(=O)C2CC2)cc1	inconclusive: 8.2 µM [inhibitor, partial curve, poor fit]
CCOC(=O)Nc1ccc2c(c1)N(C(=O)CCN1CCOCC1)c1ccccc1S2=O (configuration not stated)	inactive
O=C(NCCCN1CCCCC1)C1CCCN(c2ncnc3c2nc2n3CCCCC2)C1 (configuration not stated)	inactive
Cn1c(=O)c2c(nc(CN3CCc4ccccc4C3)n2CCCO)n(C)c1=O	inactive
COc1cc(/C=N/Nc2ccc3ccccc3c2)ccc1OC(=O)c1ccco1	inconclusive: 8.2 µM [activator, partial curve]
CCOC(=O)CSc1nnc(NC(=O)CCc2ccccc2)s1	inactive
O=C(/C=C/c1ccccc1)Nc1ncn[nH]1	inconclusive: 29.1 µM [inhibitor, single point]
COc1cccc(-c2nnc(NC(=O)CCS(=O)(=O)c3ccc(C)cc3)o2)c1	inactive
O=C(CSc1ncn[nH]1)CSc1ncn[nH]1	inactive
CCOC(=O)c1cnc2c(C(F)(F)F)cccc2c1NCCCN1CCOCC1	inactive
O=C(NCc1ccccn1)C(=O)Nc1nc(-c2ccccc2)cs1	inconclusive: 20.6 µM [activator, single point]
COc1ccc(-c2nc3ccccc3c(=O)n2NC(=O)Cc2ccccc2)cc1	inactive
COC(=O)[C@@]1(Cc2ccc(F)cc2)[C@H]2c3cc(C(=O)N4CCCC4)n(CCCNc4ncc(C(F)(F)F)cc4Cl)c3C[C@H]2CN1C(=O)c1ccccc1	inconclusive: 23.1 µM [inhibitor, single point]
CCn1c(=N)n(CC(=O)c2cccc([N+](=O)[O-])c2)c2ccccc21	inconclusive: 20.6 µM [activator, single point]
CC(C)CN(C(=O)CSc1nc(N)cc(N)n1)C1CCS(=O)(=O)C1 (configuration not stated)	inconclusive: 29.1 µM [activator, partial curve, poor fit]
Cn1c(O)c(N=Nc2ccc(F)cc2)c2ccccc21	inactive
CCOC(=O)c1sc(Nc2nc3c(F)cccc3s2)cc1C	inconclusive: 3.26 µM [activator, full curve]
Cc1ccc(NC(=O)Cn2cccc2)c(Br)c1	inconclusive: 16.4 µM [activator, single point]
O=c1c2c3nc4ccccc4nc3n(Cc3ccccc3)c2ncn1Cc1ccco1	inconclusive: 14.6 µM [inhibitor, single point]
CCN(CC(=O)Nc1cc(Cl)ccc1C)C(=O)c1oc2ccc(OC)cc2c1C	inactive
O=C(Cn1c(=O)n(CCc2c[nH]c3ccccc23)c(=O)c2cccnc21)Nc1ccccc1F	inconclusive: 20.6 µM [inhibitor, single point]
CS(=O)(=O)c1cc([N+](=O)[O-])c(Sc2nc3ccccc3[nH]2)c([N+](=O)[O-])c1	inactive
COc1ccc(C)cc1NC(=O)CSc1ccc(-c2sc(C)nc2C)nn1	inactive
COc1ccc(CCn2c(-c3ccncc3)n[nH]c2=S)cc1OC	inactive

SMILES	Potency
OC1CCC(NC(=S)Nc2ccc(SC(F)F)cc2)CC1 (configuration not stated)	inconclusive: 16.4 µM [activator, partial curve]
c1cncc(C(c2nnnn2C2CCCCC2)N2CCCCC2)c1 (configuration not stated)	inactive
O=C(Nc1ccccc1)N1CCCC(c2nc(-c3cccs3)no2)C1 (configuration not stated)	inactive
CC1=NN(C(N)=S)C(=O)C1N=Nc1ccccc1Cl (configuration not stated)	inconclusive: 35.5 µM [inhibitor, single point]
O=C(Nc1nc(-c2ccc(F)c(F)c2)cs1)C1=COCCO1	inconclusive: 14.6 µM [activator, partial curve, poor fit]
CCCC(C)NC(=O)c1sc2nc3n(c(=O)c2c1C)CCC3 (configuration not stated)	inactive
CC1CCCC(C)N1CCCNC(=O)c1ccc2nc(N3CCCCC3)sc2c1 (configuration not stated)	inconclusive: 4.11 µM [activator, partial curve]
O=C(O)c1ccc([N+](=O)[O-])c(CS(=O)(=O)c2ccccc2)c1	inactive
Cc1ccc(NC(=O)c2c(C)nn(-c3ccccc3)c2Cl)cc1	inconclusive: 20.6 µM [activator, single point]
CCOC(=O)CNC(=O)Cn1cnc2c(oc3ccccc32)c1=O	inconclusive: 23.1 µM [activator, single point]
Cc1cc(C)cc(NC(=S)Nc2cccc3ccccc23)c1	inconclusive: 18.3 µM [activator, partial curve]
Cc1cc(C)n(-c2nc(NCCN(C)C)c3c4c(sc3n2)CCCC4)n1	inconclusive: 29.1 µM [inhibitor, single point]
C/C(=N\NC(=O)c1ccccc1F)c1cccc(NC(=O)c2ccc(C)cc2)c1	inconclusive: 10.3 µM [activator, partial curve]
CCN(CC1CCCO1)C(=O)CCc1nnc(CCc2ccccc2OC)o1 (configuration not stated)	inactive
CCn1cc(C(=O)NCCC(C)C)c(=O)c2cc(S(=O)(=O)N3CCCCC3)ccc21	inactive
COc1ccc2c(c1)c(CC(=O)OCC(N)=O)c(C)n2C(=O)c1ccc(Cl)cc1	inactive
COc1ccc(-n2nc(C(=O)NCC(=O)N3CC(C)CC(C)C3)c3ccccc3c2=O)c(OC)c1 (configuration not stated)	inconclusive: 23.1 µM [inhibitor, partial curve, poor fit]
CC(OC(=O)c1ccc(S(=O)(=O)NCc2ccco2)cc1)C(=O)Nc1ccccc1 (configuration not stated)	inactive
CCCc1cnc(N2CCN(S(C)(=O)=O)CC2)nc1	inconclusive: 29.1 µM [activator, single point]
CCc1ccc(NC(=O)CSc2ccc(-c3sc(C)nc3C)nn2)cc1	inconclusive: 18.3 µM [inhibitor, single point]
CCN(CC)c1ccc(S(=O)(=O)N2CCOCC2)cc1NC(=O)COC(=O)c1ccco1	inactive
CC(C)c1ccc(OCC(=O)N2CCN(C(=O)c3ccco3)CC2)cc1	inconclusive: 1.3 µM [inhibitor, partial curve, poor fit]
Cn1cc2ccc(N)cc2n1	inactive
O=C1C2C3C=CC(C2C(=O)N1c1cccc(O)c1)C1C2C(=O)N(c4cccc(O)c4)C(=O)C2C31 (configuration not stated)	inactive

For convenience, part of the list above:
SMILES	Potency
O=C(O)c1ccc([N+](=O)[O-])c(CS(=O)(=O)c2ccccc2)c1	inactive
Cc1ccc(NC(=O)c2c(C)nn(-c3ccccc3)c2Cl)cc1	inconclusive: 20.6 µM [activator, single point]
CCOC(=O)CNC(=O)Cn1cnc2c(oc3ccccc32)c1=O	inconclusive: 23.1 µM [activator, single point]
Cc1cc(C)cc(NC(=S)Nc2cccc3ccccc23)c1	inconclusive: 18.3 µM [activator, partial curve]
Cc1cc(C)n(-c2nc(NCCN(C)C)c3c4c(sc3n2)CCCC4)n1	inconclusive: 29.1 µM [inhibitor, single point]
C/C(=N\NC(=O)c1ccccc1F)c1cccc(NC(=O)c2ccc(C)cc2)c1	inconclusive: 10.3 µM [activator, partial curve]
CCN(CC1CCCO1)C(=O)CCc1nnc(CCc2ccccc2OC)o1 (configuration not stated)	inactive
CCn1cc(C(=O)NCCC(C)C)c(=O)c2cc(S(=O)(=O)N3CCCCC3)ccc21	inactive
COc1ccc2c(c1)c(CC(=O)OCC(N)=O)c(C)n2C(=O)c1ccc(Cl)cc1	inactive
COc1ccc(-n2nc(C(=O)NCC(=O)N3CC(C)CC(C)C3)c3ccccc3c2=O)c(OC)c1 (configuration not stated)	inconclusive: 23.1 µM [inhibitor, partial curve, poor fit]
CC(OC(=O)c1ccc(S(=O)(=O)NCc2ccco2)cc1)C(=O)Nc1ccccc1 (configuration not stated)	inactive
CCCc1cnc(N2CCN(S(C)(=O)=O)CC2)nc1	inconclusive: 29.1 µM [activator, single point]
CCc1ccc(NC(=O)CSc2ccc(-c3sc(C)nc3C)nn2)cc1	inconclusive: 18.3 µM [inhibitor, single point]
CCN(CC)c1ccc(S(=O)(=O)N2CCOCC2)cc1NC(=O)COC(=O)c1ccco1	inactive
CC(C)c1ccc(OCC(=O)N2CCN(C(=O)c3ccco3)CC2)cc1	inconclusive: 1.3 µM [inhibitor, partial curve, poor fit]
Cn1cc2ccc(N)cc2n1	inactive
O=C1C2C3C=CC(C2C(=O)N1c1cccc(O)c1)C1C2C(=O)N(c4cccc(O)c4)C(=O)C2C31 (configuration not stated)	inactive

Continuation:

SMILES	Potency
Oc1cccc(/C=N/Nc2ccc(Cl)nn2)c1	inconclusive: 18.3 µM [activator, partial curve]
CCCCn1c(N)c(N(CCOC)C(=O)C2CCN(c3ncnc4sc(C)c(C)c34)CC2)c(=O)[nH]c1=O	inconclusive: 13 µM [inhibitor, single point]
Nc1nc(NC(=O)c2ccccc2)nn1-c1ccccc1	inconclusive: 13 µM [activator, partial curve]
CCCCCCCCCCCC(=O)NC(C(=O)O)C(O)c1ccccc1 (configuration not stated)	inconclusive: 3.26 µM [activator, partial curve, poor fit]
O=C(Nc1ccccc1)c1ccc(=O)n(Cc2ccc(F)c(F)c2)c1	inactive
COc1cc(OC)c2c(-c3cccc(-c4ccc(NC(C)=O)cc4)c3)cc(=O)oc2c1	inconclusive: 16.4 µM [inhibitor, partial curve, poor fit]
COc1ccc(N2CCN(C(=O)c3ccc(N4C(=O)NC5CC4(C)Oc4ccccc45)cc3)CC2)cc1 (configuration not stated)	inconclusive: 25.9 µM [inhibitor, partial curve, poor fit]
O=C(O)c1ccc(CSc2nnc(SCc3ccccc3)s2)cc1	inactive
O=C(O)CCN1C(=O)/C(=C/c2cn(-c3ccccc3)nc2-c2cccs2)SC1=S	inactive
CN(C)S(=O)(=O)c1cccc(NC(=S)N/N=C/C2CC=CCC2)c1 (configuration not stated)	inactive
Cc1ccc(C(=O)C(C)N2C(=O)NC(C)(c3ccccc3)C2=O)cc1 (configuration not stated)	inconclusive: 14.6 µM [inhibitor, partial curve, poor fit]
COc1ccc(Nc2nnc(C)c3ccccc23)cc1	inconclusive: 20.6 µM [activator, single point]
COc1ccc(-c2noc(-c3cccs3)n2)cc1OC	inconclusive: 3.66 µM [activator, full curve]
CC(C)N(CCO)C(=O)CCc1nnc(Cc2cccc(C(F)(F)F)c2)o1	inactive
CCOC(=O)c1cc(CC)sc1NC(=O)c1cc(OC)c(OC)c(OC)c1	inconclusive: 29.1 µM [inhibitor, single point]
CC(C)c1ccc(N(C(=O)c2ccco2)C(C(=O)NC2CCCC2)c2ccncc2)cc1 (configuration not stated)	inconclusive: 14.6 µM [activator, partial curve]
Nc1ccccc1-c1nnc(SCC(=O)Nc2ccccc2OC(F)F)[nH]c1=O	inactive
COc1ccc(C2C(C(C)=O)=C(C)N=c3s/c(=C\c4ccco4)c(=O)n32)c(OC)c1 (configuration not stated)	inactive
Cc1coc2c(C)c3oc(=O)c(CCC(=O)NCCCN4CCCC4=O)c(C)c3cc12	inconclusive: 0.082 µM [inhibitor, full curve]
Cc1ccc2c(c1)N(C(=O)NC1CCCCC1)C(C)(C)CC2C (configuration not stated)	inconclusive: 18.4 µM [activator, single point]
CCOC(=O)CNC(=O)C1CCCc2c1[nH]c1ccc(Cl)cc21 (configuration not stated)	inconclusive: 6.51 µM [inhibitor, single point]
Cc1ccc(C(C(=O)NCc2ccco2)N(C(=O)CNC(=O)c2cccs2)c2c(C)cccc2C)cc1 (configuration not stated)	inactive
Cc1ccc(OCc2cc(C(=O)N(C)Cc3cnc4ccccn34)no2)cc1C	inconclusive: 14.6 µM [inhibitor, partial curve]
Cc1cccc(NC(=O)Cc2nnc(NC(=O)Nc3ccccc3F)s2)c1	inconclusive: 23.1 µM [activator, single point]
